Construct, isoform or probe ends are uncertain for at least one entry.
Biological target: FadD1Pf (Pseudomonas fluorescens Migula ATCC17518) (UniProt A0ACD4XQ35)
Experiment: EMSA
Conditions: Thermo Scientific kit binding buffer (composition, pH not stated), room temperature 20 min (30 min in Fig 3 legend), 5% polyacrylamide gel, recombinant protein, protein details: His, label: 3' biotin, probe letters rebuilt from the primers and the genome

## TATGACTCAAGCTGACTGGAAAGCCCGACAGACTGCTAGGACGGGTATCGTACTAGGTGCATCAAACGCTGCGGTCTATTGTTAAGTGGGACTGAAATGTGCCTTTCCGGCACAACGCCAACTCTATAGAGTGGGCTGACTGGACATCTTCAGGGGTCGTCGGGCACGGGCGCATGCGCCTCGGCAGGAAGCCGGGATTCTCGGACTGCCGTACAACGTGCCGGATATCGGGTGCCGAATCCATATTTGGCTGATTGGTTAATAGTTTAAGAAGAACGTAGCGCTATGGCCTTGGTTGACGGTTTTCTTGAGCTGGAA (double strand) [lasRPf promoter]
  binding result: binds
